Measurements as given in paper PMC8140096.
Results are given in words; binding and its absence hold for the method and conditions named. Some entries that bind do so weakly or less than the wild type.

Amino acid sequences for entries named in this document (tags omitted). Residues count along the entry.
UniProt Q38854, residues 59-717: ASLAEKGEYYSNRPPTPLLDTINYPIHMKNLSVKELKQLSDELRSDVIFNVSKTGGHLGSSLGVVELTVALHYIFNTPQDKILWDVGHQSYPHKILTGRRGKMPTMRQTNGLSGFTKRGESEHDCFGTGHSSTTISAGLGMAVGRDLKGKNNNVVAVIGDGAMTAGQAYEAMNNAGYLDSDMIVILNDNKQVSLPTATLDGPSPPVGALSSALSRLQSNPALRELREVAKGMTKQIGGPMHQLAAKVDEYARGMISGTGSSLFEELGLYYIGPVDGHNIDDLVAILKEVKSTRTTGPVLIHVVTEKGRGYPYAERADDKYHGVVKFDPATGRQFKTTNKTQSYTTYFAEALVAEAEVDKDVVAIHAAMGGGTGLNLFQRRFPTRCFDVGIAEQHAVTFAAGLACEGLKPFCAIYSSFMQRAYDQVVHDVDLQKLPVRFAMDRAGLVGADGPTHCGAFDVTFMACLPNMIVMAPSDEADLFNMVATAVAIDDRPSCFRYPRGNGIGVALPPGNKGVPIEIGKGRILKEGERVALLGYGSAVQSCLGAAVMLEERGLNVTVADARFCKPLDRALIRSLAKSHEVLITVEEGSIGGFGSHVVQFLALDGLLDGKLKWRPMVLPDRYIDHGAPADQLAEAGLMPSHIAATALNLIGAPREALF
UniProt P31170, residues 44-227: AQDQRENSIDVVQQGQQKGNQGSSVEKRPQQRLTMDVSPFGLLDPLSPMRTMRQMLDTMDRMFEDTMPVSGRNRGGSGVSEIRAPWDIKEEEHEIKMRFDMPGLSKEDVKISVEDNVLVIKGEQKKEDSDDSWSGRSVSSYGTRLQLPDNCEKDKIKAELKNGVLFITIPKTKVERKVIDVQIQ

Key:
[1] = biological target: Arabidopsis thaliana 1-deoxy-D-xylulose 5-phosphate synthase (59-717), C-terminal hexahistidine-FLAG tandem tag (Arabidopsis thaliana) (UniProt Q38854); assay: cryo-EM structure; His-Hsp21 and DXPS-His-FLAG co-expressed in E. coli at 37 °C, purified together (HisTrap, anti-FLAG), 0.7 mg/mL; 3D classification gave free DXPS (4.0 Å) and Hsp21-DXPS (3.7 Å); both purified
[2] = biological target: untagged version of Arabidopsis thaliana Hsp21 (Arabidopsis thaliana) (UniProt P31170); assay: cryo-EM structure; purified Hsp21 without substrate, 1 mg/mL; tetrahedral symmetry imposed, 4.6 Å; both purified

Substance	binding [1]	binding [2]
Arabidopsis thaliana plastid small heat shock protein Hsp21 (44-227), N-terminal hexahistidine tag (from UniProt P31170 44-227)	binds	–
untagged version of Arabidopsis thaliana Hsp21 (from UniProt P31170 44-227)	–	binds
